Earlier results as cited in EP2252246B1, “CHEMOPROTECTIVE METHODS AND COMPOSITIONS” (BIONUMERIK PHARMACEUTICALS, INC., priority 2008, dated 2009).

Conditions: in vitro; cited from earlier work

Structure (SMILES) | direct reaction with paclitaxel
O=S(=O)([O-])CCSSCCS(=O)(=O)[O-].[Na+].[Na+] [Tavocept, disodium 2,2'-dithio-bis-ethane sulfonate] | does not directly react
O=S(=O)(O)CCS [mesna, 2-mercapto ethane sulfonate sodium, reference compound] | does not directly react
